Here are results for one molecule from PMC3659094.

The chains behind the UniProt entries cited, without tags or fusion partners. Where a name states a change or a piece, a line headed by the entry shows the natural chain unless it says otherwise. A line that says so, or that is headed by a name, gives the form on record, which may keep a tag or linker.
human Tyrosine kinase receptor B (TrkB) (Q16620, form named): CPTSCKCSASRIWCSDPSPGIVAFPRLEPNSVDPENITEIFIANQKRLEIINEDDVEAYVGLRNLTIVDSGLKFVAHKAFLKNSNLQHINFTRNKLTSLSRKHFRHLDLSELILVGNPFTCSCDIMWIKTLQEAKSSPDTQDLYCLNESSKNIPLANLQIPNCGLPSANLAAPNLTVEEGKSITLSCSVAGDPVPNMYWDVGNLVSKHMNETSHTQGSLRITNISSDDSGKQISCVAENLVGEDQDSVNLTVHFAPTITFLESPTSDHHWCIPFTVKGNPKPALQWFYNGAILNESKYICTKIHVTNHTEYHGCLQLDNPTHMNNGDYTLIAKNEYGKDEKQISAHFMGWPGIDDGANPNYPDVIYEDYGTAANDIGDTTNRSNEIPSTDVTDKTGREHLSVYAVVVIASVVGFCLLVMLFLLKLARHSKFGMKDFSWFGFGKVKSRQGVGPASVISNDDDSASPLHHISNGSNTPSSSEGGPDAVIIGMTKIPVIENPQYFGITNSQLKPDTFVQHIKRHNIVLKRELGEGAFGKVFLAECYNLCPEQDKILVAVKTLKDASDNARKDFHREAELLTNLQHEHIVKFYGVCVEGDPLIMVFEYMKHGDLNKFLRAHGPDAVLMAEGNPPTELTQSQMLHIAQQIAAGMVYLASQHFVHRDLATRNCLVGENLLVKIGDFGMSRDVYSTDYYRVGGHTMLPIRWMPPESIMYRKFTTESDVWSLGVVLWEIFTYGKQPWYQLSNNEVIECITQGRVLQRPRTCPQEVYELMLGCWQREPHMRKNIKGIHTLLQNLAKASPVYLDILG

These are yes or no findings as the source states them, for the method shown. In cells and extracts the contact can be indirect. Some binding calls cover weakened binding; strength is not graded here.

This test addresses human Tyrosine kinase receptor B (TrkB) (human) (UniProt Q16620). Put plainly: split reporter; Pathhunter technology (Discoverx), chemiluminescent signal; U2OS cells over-expressing human TrkB, 384-well plate, MEM + 0.5% horse serum; agonist (TAM-163 or BDNF) 3 hours at room temperature, substrate 1 hour; triplicate.

B1: SHC1 (protein, UniProt P29353 1-583)
chain: MDLLPPKPKYNPLRNESLSSLEEGASGSTPPEELPSPSASSLGPILPPLPGDDSPTTLCSFFPRMSNLRLANPAGGRPGSKGEPGRAADDGEGIVGAAMPDSGPLPLLQDMNKLSGGGGRRTRVEGGQLGGEEWTRHGSFVNKPTRGWLHPNDKVMGPGVSYLVRYMGCVEVLQSMRALDFNTRTQVTREAISLVCEAVPGAKGATRRRKPCSRPLSSILGRSNLKFAGMPITLTVSTSSLNLMAADCKQIIANHHMQSISFASGGDPDTAEYVAYVAKDPVNQRACHILECPEGLAQDVISTIGQAFELRFKQYLRNPPKLVTPHDRMAGFDGSAWDEEEEEPPDHQYYNDFPGKEPPLGGVVDMRLREGAAPGAARPTAPNAQTPSHLGATLPVGQPVGGDPEVRKQMPPPPPCPGRELFDDPSYVNVQNLDKARQAVGGAGPPNPAINGSAPRDLFDMKPFEDALRVPPPPQSVSMAEQLRGEPWFHGKLSRREAEALLQLNGDFLVRESTTTPGQYVLTGLQSGQPKHLLLVDPEGVVRTKDHRFESVSHLISYHMDNHLPIISAGSELCLQQPVERKL
Regarding B1, the binding result is “binds”.
